Test results from article doi:10.1101/846493.
Read-outs that look alike come from different tables or passages of the source. No constants are given. Whether binding was seen depends on the method and setting. Binding seen in cells or lysates may run through a third protein. Some binding calls cover weakened binding; strength is not graded here. For part of these data: Sequences can lack the tags named with a protein.

By UniProt entry, the sequences of proteins in these tests, tags left out.
UniProt O15105, whole entry: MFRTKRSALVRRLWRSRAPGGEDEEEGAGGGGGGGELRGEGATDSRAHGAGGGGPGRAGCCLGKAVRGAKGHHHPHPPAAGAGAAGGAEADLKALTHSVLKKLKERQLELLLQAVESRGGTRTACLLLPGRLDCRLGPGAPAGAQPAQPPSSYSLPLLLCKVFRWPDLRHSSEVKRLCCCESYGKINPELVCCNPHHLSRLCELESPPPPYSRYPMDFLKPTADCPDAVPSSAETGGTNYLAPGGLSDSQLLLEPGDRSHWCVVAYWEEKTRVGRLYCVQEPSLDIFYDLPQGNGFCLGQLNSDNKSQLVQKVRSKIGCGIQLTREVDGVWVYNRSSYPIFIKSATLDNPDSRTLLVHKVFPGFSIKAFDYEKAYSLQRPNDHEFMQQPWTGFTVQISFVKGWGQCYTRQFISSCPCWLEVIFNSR
UniProt O35253, whole entry: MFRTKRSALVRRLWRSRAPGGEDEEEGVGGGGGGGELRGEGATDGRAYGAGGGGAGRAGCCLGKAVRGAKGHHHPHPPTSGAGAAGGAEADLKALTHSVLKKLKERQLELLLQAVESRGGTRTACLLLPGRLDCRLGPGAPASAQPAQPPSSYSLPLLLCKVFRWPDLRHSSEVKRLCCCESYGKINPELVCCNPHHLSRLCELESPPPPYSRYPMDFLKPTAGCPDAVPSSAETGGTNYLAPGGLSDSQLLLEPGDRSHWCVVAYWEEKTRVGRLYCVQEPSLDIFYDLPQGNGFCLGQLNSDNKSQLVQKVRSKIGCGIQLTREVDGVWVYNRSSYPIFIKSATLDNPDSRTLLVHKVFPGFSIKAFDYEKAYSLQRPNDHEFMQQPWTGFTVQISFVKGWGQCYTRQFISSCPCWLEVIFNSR
UniProt Q9HAU4, whole entry: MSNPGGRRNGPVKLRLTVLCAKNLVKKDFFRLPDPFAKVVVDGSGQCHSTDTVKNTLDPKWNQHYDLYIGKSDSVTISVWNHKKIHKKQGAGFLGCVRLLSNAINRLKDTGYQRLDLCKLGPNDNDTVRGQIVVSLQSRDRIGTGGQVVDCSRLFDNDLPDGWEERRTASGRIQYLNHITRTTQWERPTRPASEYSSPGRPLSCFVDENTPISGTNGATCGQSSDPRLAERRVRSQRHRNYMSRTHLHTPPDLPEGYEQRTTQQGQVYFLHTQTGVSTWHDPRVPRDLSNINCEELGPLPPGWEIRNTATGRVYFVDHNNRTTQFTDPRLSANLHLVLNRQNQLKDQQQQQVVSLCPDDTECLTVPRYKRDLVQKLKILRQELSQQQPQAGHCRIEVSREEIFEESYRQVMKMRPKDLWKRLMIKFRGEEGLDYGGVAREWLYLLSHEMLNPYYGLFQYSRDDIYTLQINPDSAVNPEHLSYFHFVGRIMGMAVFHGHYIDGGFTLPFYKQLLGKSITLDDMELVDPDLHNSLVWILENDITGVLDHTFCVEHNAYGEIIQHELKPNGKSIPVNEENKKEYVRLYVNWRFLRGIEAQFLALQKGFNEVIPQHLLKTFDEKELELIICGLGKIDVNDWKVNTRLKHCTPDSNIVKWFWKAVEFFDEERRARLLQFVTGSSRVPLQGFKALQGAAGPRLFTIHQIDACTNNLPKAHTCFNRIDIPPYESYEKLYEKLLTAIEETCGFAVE

Assays:
Test in all cases: co-IP
[1] = molecular target: SMAD7-HA (UniProt O15105)
[2] = molecular target: SMAD7, endogenous in mouse liver (mouse (endogenous in Prom1+/+ liver)) (UniProt O35253)
[3] = molecular target: SMAD7-HA (UniProt O15105); remark: listed apart in the source

## Myc-SMURF2 (from UniProt Q9HAU4 1-748) (enzyme)
[1]
  binding: binds

B1: Prominin-1 (PROM1), endogenous in mouse liver (protein, UniProt O54990 20-867)
chain: EGQPAFHNTPGAMNYELPTTKYETQDTFNAGIVGPLYKMVHIFLSVVQPNDFPLDLIKKLIQNKKFDISVDSKEPEIIVLALKIALYEIGVLICAILGLLFIILMPLVGCFFCMCRCCNKCGGEMHQRQKQNAPCRRKCLGLSLLVICLLMSLGIIYGFVANQQTRTRIKGTQKLAKSNFRDFQTLLTETPKQIDYVVEQYTNTKNKAFSDLDGIGSVLGGRIKDQLKPKVTPVLEEIKAMATAIKQTKDALQNMSSSLKSLQDAATQLNTNLSSVRNSIENSLSSSDCTSDPASKICDSIRPSLSSLGSSLNSSQLPSVDRELNTVTEVDKTDLESLVKRGYTTIDEIPNTIQNQTVDVIKDVKNTLDSISSNIKDMSQSIPIEDMLLQVSHYLNNSNRYLNQELPKLEEYDSYWWLGGLIVCFLLTLIVTFFFLGLLCGVFGYDKHATPTRRGCVSNTGGIFLMAGVGFGFLFCWILMILVVLTFVVGANVEKLLCEPYENKKLLQVLDTPYLLKEQWQFYLSGMLFNNPDINMTFEQVYRDCKRGRGIYAAFQLENVVNVSDHFNIDQISENINTELENLNVNIDSIELLDNTGRKSLEDFAHSGIDTIDYSTYLKETEKSPTEVNLLTFASTLEAKANQLPEGKPKQAFLLDVQNIRAIHQHLLPPVQQSLNTLRQSVWTLQQTSNKLPEKVKKILASLDSVQHFLTNNVSLIVIGETKKFGKTILGYFEHYLHWVFYAITEKMTSCKPMATAMDSAVNGILCGYVADPLNLFWFGIGKATVLLLPAVIIAIKLAKYYRRMDSEDVYDDVETVPMKNLEIGSNGYHKDHLYGVHNPVMTSPSRY
[2]
  binding: binds

B2: PROM1-FLAG (protein, UniProt O43490 20-865)
chain: GGQPSSTDAPKAWNYELPATNYETQDSHKAGPIGILFELVHIFLYVVQPRDFPEDTLRKFLQKAYESKIDYDKPETVILGLKIVYYEAGIILCCVLGLLFIILMPLVGYFFCMCRCCNKCGGEMHQRQKENGPFLRKCFAISLLVICIIISIGIFYGFVANHQVRTRIKRSRKLADSNFKDLRTLLNETPEQIKYILAQYNTTKDKAFTDLNSINSVLGGGILDRLRPNIIPVLDEIKSMATAIKETKEALENMNSTLKSLHQQSTQLSSSLTSVKTSLRSSLNDPLCLVHPSSETCNSIRLSLSQLNSNPELRQLPPVDAELDNVNNVLRTDLDGLVQQGYQSLNDIPDRVQRQTTTVVAGIKRVLNSIGSDIDNVTQRLPIQDILSAFSVYVNNTESYIHRNLPTLEEYDSYWWLGGLVICSLLTLIVIFYYLGLLCGVCGYDRHATPTTRGCVSNTGGVFLMVGVGLSFLFCWILMIIVVLTFVFGANVEKLICEPYTSKELFRVLDTPYLLNEDWEYYLSGKLFNKSKMKLTFEQVYSDCKKNRGTYGTLHLQNSFNISEHLNINEHTGSISSELESLKVNLNIFLLGAAGRKNLQDFAACGIDRMNYDSYLAQTGKSPAGVNLLSFAYDLEAKANSLPPGNLRNSLKRDAQTIKTIHQQRVLPIEQSLSTLYQSVKILQRTGNGLLERVTRILASLDFAQNFITNNTSSVIIEETKKYGRTIIGYFEHYLQWIEFSISEKVASCKPVATALDTAVDVFLCSYIIDPLNLFWFGIGKATVFLLPALIFAVKLAKYYRRMDSEDVYDDVETIPMKNMENGNNGYHKDHVYGIHNPVMTSPSQH
[3]
  binding: binds
